Measurements as given in patent US20170015742A1.
Changes are numbered by the printed parent chain. No constants are given. Whether binding was seen depends on the method and setting. Some binding calls cover weakened binding; strength is not graded here. Blank lines part the entries; values can stand above or below the binder they belong to.

Chains of the proteins cited; added tags and fusions are not shown. Residues count along the entry.
UniProt P01127, residues 82-190: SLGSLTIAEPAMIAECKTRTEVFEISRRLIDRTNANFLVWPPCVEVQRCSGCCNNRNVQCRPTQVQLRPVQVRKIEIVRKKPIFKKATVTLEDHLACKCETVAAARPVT

Columns and labels:
[1] = molecular target: Naturally derived human VEGF-A (human) (UniProt P15692); test: sandwich ELISA, coated antibody, naturally derived huVEGF-A from Y-79 supernatant
[2] = molecular target: Human VEGF-A 165 (human) (UniProt P15692); test: direct binding ELISA on biotinylated hVEGF165 captured on neutravidin plates
[3] = molecular target: Naturally derived human VEGF-A (human) (UniProt P15692); test: sandwich ELISA, antibody coated, naturally derived huVEGF-A from Y-79 supernatant
[4] = molecular target: naturally derived human PDGF-BB (human) (UniProt P01127); test: sandwich ELISA, antibody coated, native hPDGF-BB from platelets
[5] = molecular target: recombinant human PDGF-BB (human) (UniProt P01127); test: direct binding ELISA, biotin-hPDGF-BB on neutravidin plate
[6] = molecular target: naturally derived ECM-associated PDGF-BB on HUVEC cells (human) (UniProt P01127); test: immunofluorescence staining of fixed HUVEC cells, 33 nM

binding [1]: binds
B1: BEW-10H2-B9 (antibody, IgG2b, V domains shown)
VH: QIQLVQSGPELKKPGESVKISCKASGYSFTNFGLYWVKQAPGQGLQYMGWIDTETGKPTYADDFRGRFVFFLETSASTAYLQINNLKNEDMATYFCARVYGYPSWYFDFWGPGTMVTVSS
VL: DIQMTQSPASLSTSLEEIVTITCQASQDIDNYLSWYQQKPGKSPQLLIHSATSLADGVPSRFSGSRSGTQFSLKIHRLQVEDTGIYYCLQHFFPPWTFGGGTKLELK

binding [2]: binds
binding [1]: binds
B2: BEW-164-C4 (antibody, IgG2b, V domains shown)
VH: QIQLVQSGPELKKPGESVKISCKASGYSFTNYGMYWVKQAPGQGLQYMGWIDTETGKPTYTDDFKGRFVFFLETSASTAYLQINNLKNEDMATYFCARWSGDTAGIRGPWFAYWGQGTLVTVSS
VL: DIRMTQSPASLSASLGETVNIECLASEDIYSDLAWYQQKPGKSPQLLIYNANDLQKGVPSRFSGSGSGTQYSLKINSLQSEDVATYFCQQYNYYPGTFGAGTKLELK

binding [1]: binds
B3: BEW-9E10-E7 (antibody, IgG2a, V domains shown)
VH: B2 VH with V5L, S28T, K57R, T61A, A104T
VL: B2 VL with K42R, D53G, K56N, S63G, Y94F

binding [1]: binds
B4: BEW-1E3-D6 (antibody, IgG2b, V domains shown)
VH: QIQLVQSGPELKKPGESVKISCKASGYPFTNSGMYWVKQAPGQGLQYMGWINTEAGKPTYADDFKGRFVFFLETSASTAYLQINNLKNEDMATYFCARWGYISDNSYGWFDYWGQGTLVTVSS
VL: DTVLTQSPALAVSPGERVSISCRASEGVYSYMHWYQQNPGQQPKLLIYKASNLASGVPARFSGSGSGTDFTLTIDPVEADDTATYFCHQNWNDPLTFGSGTKLEIK

binding [3]: binds
B5: BEW-9D2-E8 (antibody, V domains shown)
VH: QIQLVQSGPELKKPGESVKISCKASGYTFTNYGMYWVKLAPGQGLQYLGWINTETGKPTYADDFKGRFVFFLETSASTAYLQINNLRNEDMATYFCARPSDYYDGFWFAYWGQGTLVTVSS
VL: B4 VL with A11T, G27W, Y29N, I74L, H88Q, N90S

binding [1]: binds
B6: BEW-9E3-B9 (antibody, IgG2a, V domains shown)
VH: B5 VH with L39Q, L48M, Y80F, R87K, A109P, T115A
VL: B4 VL with V3I, V18I, Y29N, H88Q, N90S

binding [3]: binds
B7: BEW-9E7-B4 (antibody, V domains shown)
VH: QIQLVQSGPELKKPGESVKISCKASGYTFTNYGMYWVKQAPGQGLQYMGWIDTETGKPTYADDFKGRFVFFLETSASTAYLQINNLRNEDMATYFCARWGYTSDYYYGWFPDWGQGTLVTVST
VL: B4 VL with Y29N, T73N, D75H, H88Q, D93V

binding [1]: binds
B8: BEW-8E6-E4 (antibody, IgG2a, V domains shown)
VH: QIQLVQSGPELKKPGESVKISCKASGYTFTDYAMHWVKQAPGKVLKWMGWINTFTGKPTYIDDFKGRFVFSLEASASTANLQISDLKNEDTATYFCARGNYYSGYWYFDFWGPGTMVTMSS
VL: DIQMTQSPASLSASLGETISIECRASEDISSNLAWYQQKSGKSPQLLIFAANRLQDGVPSRFSGSGSGTQFSLKISGMQPEDEGDYFCLQGSKFYTFGAGTKLELK

binding [4]: binds
binding [5]: binds
B9: BDI-5H1-F6 (antibody, IgG2b, V domains shown)
VH: QVTLKESGPGILQPSQTLSLTCTFSGFSLSTFGMGVGWIRQPSGKGLEWLANIWWDDDKYYNPSLKNRLTISKDTSNSQAFLEITNVDTADTATYYCARISTGISSYYVMDAWGQGASVTVSS
VL: QFTLTQPKSVSGSLRSTITIPCERSSGDIGDTYVSWYQQHLGRPPINVIYGNDQRPSEVSDRFSGSIDSSSNSASLTITNLQMDDEADYFCQSYDSDIDIVFGGGTKLTVL

binding [3]: binds
B10: BEW-3A1-D10-G9 (antibody, V domains shown)
VH: QVQLEQSGAELVKPGTSVKLSCMASGYTSSSNHMNWMKQTTGQGLEWIGIINPGSGGTRYNVKFEGKATLTVDKSSSTAFMQLNSLTPEDSAVYYCARAGFPGPFSYYAMGAWGQGTSVTVSS
VL: DIQMTQSPPVLSASVGDRVTLSCKASQNIHNNLDWYQQKHGEAPKLLIFYTNNLQTGIPSRFSGSGSGTDYTLTISSLQPEDVATYYCYQYNSGYTFGAGTKLELK

binding [6]: binds
B11: CL-33675-IgG (antibody, V domains shown)
VH: EVTLRESGPALVKPTQTLTLTCTFSGFSLSTYGMGVGWIRQPPGKALEWLANIWWDDDKYYNPSLKNRLTISKDTSKNQVVLTMTNMDPVDTATYYCARIESSGPKYSFDYWGQGTMVTVSS
VL: EIVLTQSPGTLSLSPGERATLSCRASSGSIWYSFVSWYQQKPGQAPRLLIYADDQRASGIPDRFSGSGSGTDFTLTISRLEPEDFAVYYCQSYGINIDVVFGGGTKVEIK

binding [3]: binds
B12: BEW-9C2-D6 (antibody, V domains shown)
VH: QIQLVQSGPELKKPGESVKVSCKASGYTFTNYGIHWVKQAPGQGLQYVGWINTETGRPTYADDFKGRFVFFLETSASTAYLQINNLKNEDMATYFCARPLYYGYAHYFDYWGQGVMVTVSS
VL: DIQMTQSPASLSASLEEIVTITCQASQDIGNWLAWYQQKPGKSPQLLIYGATSLADGVPSRFSGSRSGTQYSLKISRLQVEDIGIYYCQQASSVTYTFGAGTKLELK

binding [1]: binds
B13: BEW-9A8-E2 (antibody, IgG2a, V domains shown)
VH: QIQLVQSGPELKKPGESVKISCKASGYTFTNYGMYWVKQAPGQGLQYMGWINTETGKPIYADDFKGRFVFFLETSASTAYLQINNLKNEDMATFFCARVDYDGSFWFAYWGQGTLVTVSS
VL: DTVLTQSPALAVSPGERVSISCRASESVSTVIHWYQQKPGQQPKLLIHGASNLESGVPARFSGSGSGTDFTLTIDPVEADDTATYFCQQHWNDPPTFGAGTKLEMK

binding [3]: binds
B14: BDB-4G8-D4 (antibody, V domains shown)
VH: QIQLVQSGPELKKPGESVKISCKASGYTFTNYGMYWVKQAPGQGLQYMGWINTETGKPTYADDFKGRFVFFLETSASTAYLQINNLKNEDMATYFCARTNYYYRSYIFYFDYWGQGTMVTVSS
VL: B13 VL with V31H, I32M, H48Y, H90S, P95F, G100V, M105L

binding [3]: binds
B15: BED-4G10-C8 (antibody, V domains shown)
VH: QVQLQQSGTELVKPGSSVKISCKASGYTFTSNYMHWIRQQPGNGLEWIGWIYPGDGDTNYNHNFNGKATLTADKSSSTAYMQLSSLTSEDFAVYFCASSTRAIPGWFTYWGQGTLVTVSS
VL: B13 VL with R23W, V31L, I32M, P39L, H48Y, S62R, H90S, N92S, P95Y, M105L

binding [1]: binds
B16: BEW-6C2-C8 (antibody, IgG2b, V domains shown)
VH: EVQLVESGGGLVQPGSSLKLSCAASGFTFSYYGMHWIRQAPKKGLEWMALIYYDSSKMYYADSVKGRFTISRDNSKNTLYLEMNSLRSEDTAMYYCAAGGTAPVYWGQGVMVTVSS
VL: NIQLTQSPSLLSASVGDRVTLSCKGSQNIANYLAWYQQKLGEAPKLLIYNTDSLQTGIPSRFSGSGSGTDYTLTISSLQPEDVATYFCYQSNNGYTFGAGTKLELR

binding [1]: binds
B17: BEW-5C3-E7 (antibody, IgG2b, V domains shown)
VH: QIQLVQSGPELKKPGESVKISCKASGYTFTNYGVYWVKQAPGQGLQYMGWINTETGKPTYADDFKGRFVFFLETSTNTAYLQINNLKNEDMATFFCARARQLDWFVYWGQGTLVTVSS
VL: DTVLTQSPALTVSPGERVSISCRARESLTTSLCWFQQKPGQQPKLLIYGASKLESGVPARFSGSGSGTDFTLTIDPVEADDTATYFCQQSWYDPPTFGGGTKLELK

binding [3]: binds
B18: BEW-1B10-B9-C3 (antibody, V domains shown)
VH: EVQLVESGGGLVQPGRSLKLSCAASGFSFSKYDMAWFRQTPTKGLEWVASITTSGVGTYYRDSVKGRFTVSRDNAKSTLYLQMDSLRSEDTATYYCARGYGAMDAWGQGTSVTVSS
VL: DIQMTQSPASLSASLEEIVTITCKASQDIDDYLSWYQQKPGKSPQLVIYAATRLADGVPSRFSGSGSGTQYSLKISRLQVDDSGIYYCLQSSSTPWTFGGGTNLELK
